The values that follow come from article PMC7761126.

The target in assay [1] is T1, leucine-rich repeat in flightless 1 interaction protein 1 (rat (endogenous in primary cortical neurons and brain)) (UniProt Q66HF9).
T1 sequence: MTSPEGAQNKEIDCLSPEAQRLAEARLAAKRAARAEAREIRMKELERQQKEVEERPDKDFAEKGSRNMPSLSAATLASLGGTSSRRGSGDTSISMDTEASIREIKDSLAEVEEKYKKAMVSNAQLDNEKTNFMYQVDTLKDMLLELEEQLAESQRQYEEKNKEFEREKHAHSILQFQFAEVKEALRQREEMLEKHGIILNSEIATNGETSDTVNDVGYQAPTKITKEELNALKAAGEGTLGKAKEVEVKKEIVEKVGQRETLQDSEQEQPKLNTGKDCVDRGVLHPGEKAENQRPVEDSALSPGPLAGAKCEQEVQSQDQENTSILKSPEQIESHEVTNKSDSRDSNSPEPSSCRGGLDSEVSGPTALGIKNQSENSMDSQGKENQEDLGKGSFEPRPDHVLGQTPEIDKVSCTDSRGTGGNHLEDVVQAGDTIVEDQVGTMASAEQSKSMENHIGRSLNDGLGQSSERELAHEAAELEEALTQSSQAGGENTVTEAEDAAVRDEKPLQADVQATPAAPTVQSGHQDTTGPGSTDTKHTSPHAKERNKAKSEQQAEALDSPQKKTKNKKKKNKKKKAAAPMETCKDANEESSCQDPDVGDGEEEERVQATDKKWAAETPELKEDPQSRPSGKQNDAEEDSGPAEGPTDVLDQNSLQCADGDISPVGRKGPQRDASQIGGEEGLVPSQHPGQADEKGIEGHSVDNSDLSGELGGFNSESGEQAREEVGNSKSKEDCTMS
The experiment in a line: co-IP; direct and reverse: ischemic rat brain tissue homogenate (MCAO) in SDS-free RIPA, overnight with anti-DAPK1 or anti-LRRFIP1 capture antibody, protein G magnetic beads, SDS elution, WB.

For assay [2], the target named is T1, leucine-rich repeat in flightless 1 interaction protein 1 (rat (endogenous in primary cortical neurons and brain)). The experiment in a line: co-IP; direct and reverse: extracts of primary rat cortical neurons (control, NMDA 30 min or OGD) in SDS-free RIPA, overnight with anti-DAPK1 or anti-LRRFIP1 capture antibody, protein G magnetic beads, SDS elution, WB.
The target of assay [3] is Death-associated protein kinase 1 (rat (endogenous in primary cortical neurons and brain)). The experiment in a line: co-IP; IP of DAPK1 with anti-DAPK1 antibody from extracts of rat cortical neurons (control or OGD), Dynabeads Co-IP kit elution buffer, partners detected by WB.
The target is the same in assay [4]. The experiment in a line: co-IP; direct and reverse: ischemic rat brain tissue homogenate (MCAO) in SDS-free RIPA, overnight with anti-DAPK1 or anti-LRRFIP1 capture antibody, protein G magnetic beads, SDS elution, WB.
The target is the same in assay [5]. The experiment in a line: co-IP; direct and reverse: extracts of primary rat cortical neurons (control, NMDA 30 min or OGD) in SDS-free RIPA, overnight with anti-DAPK1 or anti-LRRFIP1 capture antibody, protein G magnetic beads, SDS elution, WB.

Results are given in words; binding and its absence hold for the method and conditions named. Binding seen in cells or lysates may run through a third protein. A result given as binding can be weak or reduced; the word gives no strength.

Turning to “Death-associated protein kinase 1 (enzyme)”, the binding result in assay [1] and in assay [2] was “binds” in each case.

B1: GAIP interacting protein at C terminus (protein, UniProt Q9Z254 1-333)
chain: MPLGLGRRKKAPPLVENEEAEPSRSGLGVGEPGPLGGSGAGESQMGLPPPPASLRPRLVFHTQLAHGSPTGRIEGFTNVKELYGKIAEAFRLPAAEVMFCTLNTHKVDMDKLLGGQIGLEDFIFAHVKGQRKEVEVFKSEDALGLTITDNGAGYAFIKRIKEGSVIDHIQLISVGDMIEAINGQSLLGCRHYEVARLLKELPRGRTFTLKLTEPRKAFDMISQRSSGGHPGSGPQLGTGRGTLRLRSRGPATVEDLPSAFEEKAIEKVDDLLESYMGIRDTELAATMVELGKDKRNPDELAEALDERLGDFAFPDEFVFDVWGAIGDAKVGRY
Regarding B1, the binding result in assay [3] was “binds”.

B2: leucine-rich repeat in flightless 1 interaction protein 1 (protein, UniProt Q66HF9 1-738)
chain: T1 sequence
Regarding B2, the binding result in assay [4], in assay [5] and in assay [3] was “binds” in each case.
